The record followed here is ChEMBL document CHEMBL1121652, “Allylprodine analogues as receptor probes. Evidence that phenolic and nonphenolic ligands interact with different subsites on identical opioid receptors” (J Med Chem, 1981).

The species entered for this assay is Mus musculus. Nature of the assay: cells. Conditions: Tail, read-out: pA2 (converted).

Turning to `CN1CC[C@]23c4c5ccc(O)c4O[C@H]2[C@@H](O)C=C[C@H]3[C@H]1C5` [MORPHINE], the Kb was above 1 µM.
